{"source": "patent US20070136828A1", "about": "“Methods of using molecules related to organic cation transporter 3 (oct3) for treating depression, anxiety neuroses, drug dependencies, and other similar mental disorders” (Biostation Inc., priority 2004, published 2007)", "origin": "cited, not measured here", "test_system": "cultured porcine tubular cells", "settings": "cited from earlier work", "note": "At least one structure is not confirmed: it was looked up by name or label, or the drawing left a doubt.", "data": [{"smiles": "C[C@]12CC[C@@H]3c4ccc(O)cc4CC[C@H]3[C@@H]1CC[C@@H]2O", "note": "[estradiol]", "values": [{"measurement": "noradrenaline uptake", "value": "significantly reduce"}]}]}
